{
  "source": "paper PMC5521794",
  "about": "“Understanding Russell’s viper venom factor V activator’s substrate specificity by surface plasmon resonance and in-silico studies” (PLoS ONE, 2017)",
  "binders": {"B1": {"name": "Peptide I (factor V cleavage site I, Gln699-Asn713) (peptide)", "peptide": "QNGLAAALGIRSFGN"}},
  "target": "Russell's viper venom factor V activator (Russell's viper)",
  "assay": "SPR; Biacore T200; RVV-V immobilised on a CM5 chip by amine coupling (3000 RU); peptides flowed over at 62.5 uM to 1 mM in PBS, 30 ul/min; association 120 s, dissociation 300 s; regeneration 10 mM glycine pH 2.5; two-state binding model; both purified",
  "note": "These are yes or no findings as the source states them, for the method shown.",
  "data": [
    {"binder": "B1", "values": [
      {"measurement": "binding", "result": "no binding (tested: 62.5 uM to 1 mM)"}
    ]}
  ]
}
